Results as given in patent US20170369589A1 (INBIOMOTION S L, published 2017).
No constants are given. Whether binding was seen depends on the method and setting. Some entries that bind do so weakly or less than the wild type.

Target: INB-1-11-8 c-MAF specific monoclonal antibody (rabbit)
Experiment: SPR, Biacore T200; antibody captured on immobilized recombinant Protein A

With “Recombinant Protein A (from UniProt P38507 37-327)” the binding was “binds”.
